Values of other authors as cited in patent publication US20030140362A1, “In vivo models for screening inhibitors of hepatitis B virus” (priority 2001, published 2003).
At least one compound was matched to its structure with a doubt left.

Tested on: HBV

Structure (SMILES): Nc1ccn([C@@H]2CS[C@H](CO)O2)c(=O)n1 [Lamivudine]
- improvements in liver histology, share of patients (chronic administration): over 50%
- reduction in hepatitis B DNA (patients, 100 mg per day): 98%
